# From the supplement of paper PMC8728848
# The list shows a part of the results.
# B1: SrpA (Streptococcus sanguis) (protein)
# chain: SSKSESTVNSQSASSETNRSSTNNGSTSSSSETARVRKRRATDTTPPTITVPSDIIAYRGEEFEFYFEITDDSGQVKNIELSTFGKPLGLNWLEYSEDNFNVPGNATSDNPLRVRVHGTVPLNEPIPADKNRAQFTRTIRAWDAAGNVSSNITFVIKYRAQTDKYNPADPTITYVDRLSSLSPSEKNAVEAAVRAANPQIPAAARITVSANGTVTITYPDSSTDTITANRVVKDLASSRSALT
# Experiments:
# Assay in all cases: glycan array binding signal (z-score within array); higher = stronger binding
# Conditions in all cases: glycan notation: IUPAC condensed, linker removed
# [1] = biological target: Fuc(a1-2)[GalNAc(a1-3)]Gal(b1-4)[Fuc(a1-3)]GlcNAc
# Procedure, shortened: (§1)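 Glycan array data were curated from 3228 arrays in the Consortium for Functional Glycomics database and kept only where the protein sequence was available. Glycan names were converted to IUPAC-condensed notation, and columns mapping to the same glycan were averaged. The binding signal is a within-array Z-score, averaged across arrays of the same protein sequence at different concentrations or buffers and across linkers. Negative Z-scores can be read as non-binding.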
# [2] = biological target: Fuc(a1-2)[GalNAc(a1-4)]Gal(b1-4)GlcNAc
# Procedure, shortened: as §1
# [3] = biological target: Fuc(a1-2)[GalNAc(b1-3)]Gal
# Procedure, shortened: as §1
# [4] = biological target: Fuc(a1-3)GlcNAc
# Procedure, shortened: as §1
# [5] = biological target: Fuc(a1-3)[Gal(b1-4)]Glc6S
# Procedure, shortened: as §1
# [6] = biological target: Fuc(a1-3)[Gal(b1-4)]GlcNAc
# Procedure, shortened: as §1
# [7] = biological target: Fuc(a1-3)[Gal(b1-4)]GlcNAc(b1-3)Gal(b1-3)[Fuc(a1-4)]GlcNAc
# Procedure, shortened: as §1
# [8] = biological target: Fuc(a1-3)[Gal(b1-4)]GlcNAc(b1-4)Gal(b1-4)[Fuc(a1-3)]GlcNAc
# Procedure, shortened: as §1
# [9] = biological target: Fuc(a1-3)[Gal(b1-4)]GlcNAc(b1-4)Gal(b1-4)[Fuc(a1-3)]GlcNAc(b1-4)Gal(b1-4)[Fuc(a1-3)]GlcNAc
# Procedure, shortened: as §1
# [10] = biological target: Fuc(a1-3)[Gal(b1-4)]GlcNAc6S
# Procedure, shortened: as §1
# [11] = biological target: Fuc(a1-3)[Gal3S(b1-4)]Glc6S
# Procedure, shortened: as §1
# [12] = biological target: Fuc(a1-3)[Gal3S(b1-4)]GlcNAc
# Procedure, shortened: as §1
# [13] = biological target: Fuc(a1-3)[Gal3S(b1-4)]GlcNAc6S
# Procedure, shortened: as §1
# [14] = biological target: Fuc(a1-3)[GalNAc(b1-4)]GlcNAc
# Procedure, shortened: as §1
# [15] = biological target: Fuc(a1-4)GlcNAc
# Procedure, shortened: as §1
# [16] = biological target: Fuc(b1-3)GlcNAc
# Procedure, shortened: as §1
# [17] = biological target: Gal(a1-2)Gal
# Procedure, shortened: as §1
# [18] = biological target: Gal(a1-3)Gal
# Procedure, shortened: as §1
# [19] = biological target: Gal(a1-3)Gal(b1-3)GlcNAc
# Procedure, shortened: as §1
# [20] = biological target: Gal(a1-3)Gal(b1-4)Glc
# Procedure, shortened: as §1
# [21] = biological target: Gal(a1-3)Gal(b1-4)GlcNAc
# Procedure, shortened: as §1
# [22] = biological target: Gal(a1-3)Gal(b1-4)[Fuc(a1-3)]GlcNAc
# Procedure, shortened: as §1
# [23] = biological target: Gal(a1-3)GalNAc
# Procedure, shortened: as §1
# [24] = biological target: Gal(a1-3)[Gal(a1-4)]Gal(b1-4)GlcNAc
# Procedure, shortened: as §1
# [25] = biological target: Gal(a1-4)Gal(b1-4)Glc
# Procedure, shortened: as §1
# [26] = biological target: Gal(a1-4)Gal(b1-4)GlcNAc
# Procedure, shortened: as §1
# [27] = biological target: Gal(a1-4)GlcNAc
# Procedure, shortened: as §1
# [28] = biological target: Gal(a1-6)Glc
# Procedure, shortened: as §1
# [29] = biological target: Gal(b1-2)Gal
# Procedure, shortened: as §1
# [30] = biological target: Gal(b1-3)Gal
# Procedure, shortened: as §1
# [31] = biological target: Gal(b1-3)GalNAc
# Procedure, shortened: as §1
# [32] = biological target: Gal(b1-3)GalNAc(b1-3)Gal(a1-4)Gal(b1-4)Glc
# Procedure, shortened: as §1
# [33] = biological target: Gal(b1-3)GalNAc(b1-4)Gal(b1-4)Glc
# Procedure, shortened: as §1
# [34] = biological target: Gal(b1-3)GalNAc(b1-4)[Neu5Ac(a2-3)]Gal(b1-4)Glc
# Procedure, shortened: as §1
# [35] = biological target: Gal(b1-3)GlcNAc
# Procedure, shortened: as §1
# [36] = biological target: Gal(b1-3)GlcNAc(b1-3)Gal(b1-3)GlcNAc
# Procedure, shortened: as §1
# [37] = biological target: Gal(b1-3)GlcNAc(b1-3)Gal(b1-4)Glc
# Procedure, shortened: as §1
# [38] = biological target: Gal(b1-3)GlcNAc(b1-3)Gal(b1-4)GlcNAc
# Procedure, shortened: as §1
# [39] = biological target: Gal(b1-3)[Fuc(a1-4)]GlcNAc
# Procedure, shortened: as §1
# [40] = biological target: Gal(b1-3)[Fuc(a1-4)]GlcNAc(b1-3)Gal(b1-3)[Fuc(a1-4)]GlcNAc
# Procedure, shortened: as §1
# [41] = biological target: Gal(b1-3)[Fuc(a1-4)]GlcNAc(b1-3)Gal(b1-4)GlcNAc
# Procedure, shortened: as §1
# [42] = biological target: Gal(b1-3)[Fuc(a1-4)]GlcNAc(b1-3)Gal(b1-4)[Fuc(a1-3)]GlcNAc
# Procedure, shortened: as §1
# [43] = biological target: Gal(b1-3)[GlcNAc(b1-6)]GalNAc
# Procedure, shortened: as §1
# [44] = biological target: Gal(b1-3)[Neu5Ac(a2-6)]GalNAc
# Procedure, shortened: as §1
# [45] = biological target: Gal(b1-3)[Neu5Ac(a2-6)]GlcNAc(b1-6)Gal(b1-4)Glc
# Procedure, shortened: as §1
binder,measurement,setting,value
B1,glycan array binding signal (z-score),[1],-0.341
same,glycan array binding signal (z-score),[2],1.31
same,glycan array binding signal (z-score),[3],-0.463
same,glycan array binding signal (z-score),[4],0.064
same,glycan array binding signal (z-score),[5],0.486
same,glycan array binding signal (z-score),[6],-0.299
same,glycan array binding signal (z-score),[7],-0.157
same,glycan array binding signal (z-score),[8],1.24
same,glycan array binding signal (z-score),[9],-0.758
same,glycan array binding signal (z-score),[10],0.652
same,glycan array binding signal (z-score),[11],1.34
same,glycan array binding signal (z-score),[12],0.403
same,glycan array binding signal (z-score),[13],1.06
same,glycan array binding signal (z-score),[14],-0.159
same,glycan array binding signal (z-score),[15],-0.454
same,glycan array binding signal (z-score),[16],-0.308
same,glycan array binding signal (z-score),[17],-0.053
same,glycan array binding signal (z-score),[18],1.1
same,glycan array binding signal (z-score),[19],-0.516
same,glycan array binding signal (z-score),[20],0.291
same,glycan array binding signal (z-score),[21],0.339
same,glycan array binding signal (z-score),[22],-0.1
same,glycan array binding signal (z-score),[23],-0.317
same,glycan array binding signal (z-score),[24],-0.031
same,glycan array binding signal (z-score),[25],0.244
same,glycan array binding signal (z-score),[26],-0.222
same,glycan array binding signal (z-score),[27],0.588
same,glycan array binding signal (z-score),[28],0.965
same,glycan array binding signal (z-score),[29],-0.396
same,glycan array binding signal (z-score),[30],-0.023
same,glycan array binding signal (z-score),[31],-0.369
same,glycan array binding signal (z-score),[32],0.388
same,glycan array binding signal (z-score),[33],-0.136
same,glycan array binding signal (z-score),[34],-0.532
same,glycan array binding signal (z-score),[35],0.089
same,glycan array binding signal (z-score),[36],-0.335
same,glycan array binding signal (z-score),[37],-0.479
same,glycan array binding signal (z-score),[38],-0.482
same,glycan array binding signal (z-score),[39],-0.359
same,glycan array binding signal (z-score),[40],-0.44
same,glycan array binding signal (z-score),[41],-0.372
same,glycan array binding signal (z-score),[42],-0.343
same,glycan array binding signal (z-score),[43],-0.663
same,glycan array binding signal (z-score),[44],-0.333
same,glycan array binding signal (z-score),[45],-0.475

# Exported as tab-separated lines: entries from further up.
binder	measurement	setting	value
B1	glycan array binding signal (z-score)	[43]	-0.663
same	glycan array binding signal (z-score)	[44]	-0.333
